Assay results taken from PubChem BioAssay AID743255 (National Center for Advancing Translational Sciences (NCATS), 2014).
Out of some 390,000 compounds screened, about 910 (0.23%) were called active. Inconclusive results, whose numbers are uncertain, are shown with a selection of clear calls. The call rests on the fitted dose curve; in most records, active means well fitted inhibition curve with a large enough effect; inconclusive means small, poorly fitted or top-dose-only effect; inactive means no such curve, though single readings can be large or run the other way. Potencies of inconclusive entries are doubtful fits and often do not repeat.

The chains behind the UniProt entries cited, without tags or fusion partners. Where a name states a change or a piece, a line headed by the entry shows the natural chain unless it says otherwise.
UniProt O94782: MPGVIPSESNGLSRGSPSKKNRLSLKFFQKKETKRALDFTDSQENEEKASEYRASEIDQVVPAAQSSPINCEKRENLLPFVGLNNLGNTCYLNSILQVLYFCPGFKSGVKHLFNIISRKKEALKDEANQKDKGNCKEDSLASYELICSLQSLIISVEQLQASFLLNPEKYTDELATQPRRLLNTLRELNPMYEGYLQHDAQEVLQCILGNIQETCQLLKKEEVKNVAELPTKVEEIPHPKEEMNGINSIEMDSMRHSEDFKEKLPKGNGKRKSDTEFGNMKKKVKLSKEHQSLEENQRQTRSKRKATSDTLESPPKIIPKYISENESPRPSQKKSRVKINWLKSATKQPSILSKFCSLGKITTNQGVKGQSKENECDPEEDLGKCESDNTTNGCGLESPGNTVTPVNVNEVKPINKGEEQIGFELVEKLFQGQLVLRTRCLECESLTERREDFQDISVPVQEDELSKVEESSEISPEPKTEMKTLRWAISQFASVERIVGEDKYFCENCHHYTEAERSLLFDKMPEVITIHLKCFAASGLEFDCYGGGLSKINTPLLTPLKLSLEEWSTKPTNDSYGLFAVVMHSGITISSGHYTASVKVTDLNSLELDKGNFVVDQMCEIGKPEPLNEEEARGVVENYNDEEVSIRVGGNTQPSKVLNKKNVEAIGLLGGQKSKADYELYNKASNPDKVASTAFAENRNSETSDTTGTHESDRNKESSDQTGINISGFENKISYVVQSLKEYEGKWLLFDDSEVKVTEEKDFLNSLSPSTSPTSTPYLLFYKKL

biological target: Ubiquitin carboxyl-terminal hydrolase 1 (Homo sapiens) (UniProt O94782); assay: Inhibitors of USP1/UAF1: Primary Screen; conditions: recombinant USP1/UAF1, Ub-Rhodamine cleavage fluorescence; series mostly up to 57.1 µM; further: nearly all actives have a fitted effect of over 60% in size
Outline: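 High-throughput fluorogenic screen: 1nM USP1/UAF1 complex, Ub-Rho substrate 150nM final, 50mM HEPES pH 7.8 with 0.5mM EDTA, 0.1 mg/ml BSA, 1mM TCEP and 0.01% Tween-20.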
Potency means the concentration at half of the fitted maximal effect.

Row | SMILES | Potency
1 | [O-][N+]12CCN(CC1)c1ccccc12 | inconclusive: 7.08 µM [inhibitor, single point]
2 | Cc1ccc(-c2cc(C(=O)NCc3cnn(C)c3)c3cc(Br)ccc3n2)cc1 | inconclusive: 14.1 µM [inhibitor, partial curve]
3 | C/C=C(\C)C(=O)NCCN1C2=NC[C@@H](C)N2C[C@@H]1Cc1ccc(OC)cc1 | inconclusive: 0.251 µM [inhibitor, full curve, poor fit]
4 | COc1ccc(NC(=S)N2CCN(C/C=C/c3ccccc3)CC2)c(OC)c1 | inconclusive: 44.7 µM [inhibitor, partial curve, poor fit]
5 | O=C(Cc1ccccc1)Nc1c(C(=O)N2CCN(c3ccc(F)cc3)CC2)oc2ccccc12 | inconclusive: 44.7 µM [inhibitor, partial curve, poor fit]
6 | CCOc1ccc(C2CC(c3cccc(C)c3)n3ncnc3N2)cc1 (stereo unspecified) | inconclusive: 31.6 µM [inhibitor, partial curve]
7 | CCNc1nc2c(c(=O)[nH]c(=O)n2C)n1CC(O)COc1ccc(Cl)cc1Cl (stereo unspecified) | inconclusive: 0.316 µM [inhibitor, full curve, poor fit]
8 | CCC(=O)N1CCCc2cc(S(=O)(=O)N3CCC(C(=O)Nc4ccc(F)c(F)c4)CC3)ccc21 | inconclusive: 11.2 µM [inhibitor, partial curve, poor fit]
9 | Cc1ccccc1NC(=O)Nc1ccccc1N1CCCCC1 | inconclusive: 44.7 µM [inhibitor, partial curve]
10 | CC(=O)c1cccc(NC(=O)CCCN2C(=O)COc3ccc(C)cc32)c1 | inconclusive: 11.2 µM [inhibitor, partial curve, poor fit]
11 | Cc1ccc(-c2cc(NC(=O)C(C)Oc3ccc(C)c(C)c3)on2)cc1 (stereo unspecified) | inconclusive: 7.94 µM [inhibitor, single point]
12 | C/C=C\C=C/C(=O)Nc1cccc(C2=NOC3(C2)C[C@@H](C(N)=O)N(C(=O)CCCCC)C3)c1 (stereo partly specified) | inconclusive: 3.16 µM [inhibitor, full curve]
13 | CC1CCN(C(=O)CN2CCSc3ccccc32)CC1 | inconclusive: 44.7 µM [inhibitor, partial curve, poor fit]
14 | N=c1c(C(=O)NC2CCCC2)cc2c(=O)n3ccccc3nc2n1CC1CCCO1 (stereo unspecified) | inconclusive: 3.16 µM [inhibitor, partial curve]
15 | CSc1ccc(CN2CCC(n3nccc3NC(=O)c3ccccc3C)CC2)cc1 | inactive
16 | O=C(NCCSCc1c(F)cccc1Cl)C1CCN(S(=O)(=O)Cc2ccccc2)CC1 | inconclusive: 11.2 µM [inhibitor, partial curve, poor fit]
17 | COc1ccc(Cn2ccnc2SCC(=O)Nc2ccc(C)cc2C)cc1 | inconclusive: 11.2 µM [inhibitor, partial curve, poor fit]
18 | COc1cccc(NC(=O)CN2CCCN(S(=O)(=O)c3ccc(Br)cc3)CC2)c1 | inconclusive: 0.562 µM [inhibitor, full curve, poor fit]
19 | CC(C)(C)CC(=O)Nc1nnc2n1CCS2 | inconclusive: 0.282 µM [inhibitor, full curve, poor fit]
20 | O=C(NCc1ccco1)Nc1ccc(Br)cc1 | inactive
21 | Cc1ccc(CNC(=O)CN(c2ccc(C(C)C)cc2)S(=O)(=O)c2c(C)n[nH]c2C)cc1 | inconclusive: 14.1 µM [inhibitor, partial curve, poor fit]

Reformatted tab-delimited: 2 of the compounds above.
Row	SMILES	Potency
6	CCOc1ccc(C2CC(c3cccc(C)c3)n3ncnc3N2)cc1 (stereo unspecified)	inconclusive: 31.6 µM [inhibitor, partial curve]
19	CC(C)(C)CC(=O)Nc1nnc2n1CCS2	inconclusive: 0.282 µM [inhibitor, full curve, poor fit]

Following part:

Row | SMILES | Potency
22 | COc1ccccc1/C=C/C(=O)Nc1cccc(C(C)=O)c1 | inactive
23 | COc1ccccc1N1CCN(C2CCCN(C(=O)CN3CCCC3=O)C2)CC1 (stereo unspecified) | inactive
24 | CC1CC(=O)c2cc(-c3ccccc3)oc2C1 (stereo unspecified) | inactive
25 | Cc1cc(C)c2c(=O)c3c(oc2c1)C(=O)N(Cc1ccc(F)cc1)C3c1cccc(O)c1 (stereo unspecified) | inconclusive: 7.08 µM [inhibitor, single point]
26 | O=S1(=O)[C@H]2C[C@@H]3C=C[C@@]2(CN1Cc1ccc(Cl)cc1)O3 | inconclusive: 2.51 µM [inhibitor, full curve, poor fit]
27 | CCOC(=O)CCN(C(=S)Nc1ccccc1)C1CCCCC1 | inconclusive: 6.31 µM [inhibitor, single point]
28 | COc1cccc(CN(C)C(=O)c2ccc(OCC(=O)Nc3cccc(C(F)(F)F)c3)c(OC)c2)c1 | inconclusive: 8.91 µM [inhibitor, partial curve]
29 | COc1ccc(C2=CC3=C(Br)C(=O)C(C)(O)C(=O)C3=CO2)cc1 (stereo unspecified) | active: 35.5 µM
30 | Cc1ccc(S(=O)(=O)N(C)C)cc1NC(=O)C(C)N(C)Cc1sccc1C (stereo unspecified) | inconclusive: 28.2 µM [inhibitor, partial curve]
31 | CCCn1c(=N)c(C(=O)NCc2cccnc2)cc2c(=O)n3cc(C)ccc3nc21 | inconclusive: 8.91 µM [inhibitor, partial curve]
32 | O=C(C1CCCN(S(=O)(=O)c2cccc3nonc23)C1)N1CCN(c2cccc(Cl)c2)CC1 (stereo unspecified) | inactive
33 | Cc1ccc(C)c(N2CCN(C(=O)Cn3ncc4c(=O)oc5ccc(C)cc5c43)CC2)c1 | inconclusive: 8.91 µM [inhibitor, partial curve]
34 | CC(CCC(C)C(C)(C)C)[C@@H]1CC[C@H]2C3C[C@H](OS(O)(=S)=S)[C@H]4C[C@H](OS(O)(=S)=S)[C@@H](OS(O)(=S)=S)C[C@]4(C)[C@H]3CC[C@]12C (stereo partly specified) (tested in a mixture with another compound) | active: 17.8 µM
35 | O=C(/C=C/c1ccco1)Nc1cccc(C(=O)Nc2ccccc2C(=O)O)c1 | inactive
36 | C=CC[C@H](CC(=O)NCCO)C(=O)N[C@@H](COC(=O)[C@H](CC=C)CC(=O)OC(C)(C)C)Cc1c[nH]c2ccccc12 | inconclusive: 2.51 µM [inhibitor, full curve]
37 | COc1ccc(CNC(=O)Cn2ccc3cc(S(=O)(=O)N4CCCCC4)ccc32)c(OC)c1 | inconclusive: 0.398 µM [inhibitor, full curve, poor fit]
38 | OCCN(CCO)c1cc2c3ccccc3ccc2c2ccccc12 | inconclusive: 28.2 µM [inhibitor, single point]
39 | CC(=O)c1ccc(NC(=O)c2ccc3c(c2)N(Cc2cccc(Cl)c2)C(=O)c2ccccc2S3(=O)=O)cc1 | inconclusive: 0.282 µM [inhibitor, full curve]
40 | COc1ccc(-c2ccc3oc(-c4ccc(OC)cc4)c(C#CCCO)c3c2)cc1 | inconclusive: 39.8 µM [inhibitor, partial curve]
41 | CCN(CC)CCCNc1ccc2ncn3c4ccc(O)cc4c(=O)c1c23 | active: 28.2 µM
42 | O=C(c1ccc(Cl)c(Cl)c1)N1CCC(=O)N(C(COCc2ccccc2)Cc2ccccc2)CC1 (stereo unspecified) | inconclusive: 50.1 µM [inhibitor, single point]

Row | SMILES | Potency
43 | CC1=C([N+](=O)[O-])C(c2ccccc2)NC(=O)N1 (stereo unspecified) | inactive
44 | CCOC(=O)c1cnc2cc(C(F)(F)F)ccc2c1N1CCN(c2ccc(F)cc2)CC1 | inconclusive: 44.7 µM [inhibitor, partial curve, poor fit]
45 | COc1ccccc1OCC(O)CN1C(=O)NC(C)(C)C1=O (stereo unspecified) | inconclusive: 1.58 µM [inhibitor, full curve, poor fit]
46 | Cc1nc(Br)c(Br)c(C)c1Br | inconclusive: 39.8 µM [inhibitor, partial curve, poor fit]
47 | Cc1c(Cl)cccc1NC(=S)NCC1COc2ccccc2O1 (stereo unspecified) | inactive
48 | Cn1cccc1/C=N\NC(=O)C1COc2ccc(C(C)(C)C)cc2O1 (stereo unspecified) | inconclusive: 39.8 µM [inhibitor, partial curve]
49 | OCCC1CN(Cc2ccc(F)cc2Cl)CCN1CCc1ccccc1 (stereo unspecified) | inactive
50 | N#Cc1sc2nc(-c3cccs3)cc(-c3ccc(Cl)cc3)c2c1N | inconclusive: 28.2 µM [inhibitor, single point]
51 | Cc1nn(C)cc1N1C(=O)c2cccc3c(N)ccc(c23)C1=O | inconclusive: 0.282 µM [inhibitor, full curve, poor fit]
52 | COc1ccccc1-c1nc(C#N)c(NCc2ccc(F)cc2)o1 | inconclusive: 28.2 µM [inhibitor, partial curve]
53 | Cc1ccc(S(=O)(=O)N(CC#N)CC#N)cc1 | inconclusive: 7.94 µM [inhibitor, partial curve, poor fit]
54 | CN(Cc1ccccc1)C(=O)c1[nH]cnc1C(=O)N[C@@H](Cc1ccccc1)C(=O)OC(C)(C)C | inconclusive: 2.51 µM [inhibitor, full curve]
55 | COc1cc2c(cc1OC)CN(c1ccc3ccccc3n1)CC2 | inconclusive: 39.8 µM [inhibitor, partial curve, poor fit]
56 | NC(CSS(=O)(=O)O)=NCCC12CC3CC(CC(O)(C3)C1)C2 | inconclusive: 39.8 µM [inhibitor, partial curve]
57 | COc1ccc(CCNc2ncnc3c2c(C)c(C)n3CCCN(C)C)cc1OC | inactive
58 | CCOC(=O)c1ccc2c(c1)N(CC(=O)Nc1ccc(C)cc1C)C(=O)c1ccccc1S2 | inconclusive: 44.7 µM [inhibitor, partial curve, poor fit]
59 | Cc1c(C)n(C)c2ccc(C(=O)NCc3cccs3)cc12 | inconclusive: 12.6 µM [inhibitor, partial curve, poor fit]
60 | COc1ccc(NC(=O)CN2C(=O)COc3ccc(S(=O)(=O)Nc4ccccc4)cc32)cc1OC | inconclusive: 14.1 µM [inhibitor, partial curve, poor fit]
61 | Cc1nn(C(=O)COc2ccccc2)c(C)c1Sc1ccccc1 | inactive

Records 48–50 from above:
Row | SMILES | Potency
48 | Cn1cccc1/C=N\NC(=O)C1COc2ccc(C(C)(C)C)cc2O1 (stereo unspecified) | inconclusive: 39.8 µM [inhibitor, partial curve]
49 | OCCC1CN(Cc2ccc(F)cc2Cl)CCN1CCc1ccccc1 (stereo unspecified) | inactive
50 | N#Cc1sc2nc(-c3cccs3)cc(-c3ccc(Cl)cc3)c2c1N | inconclusive: 28.2 µM [inhibitor, single point]
